Experimental findings from PMC9034549 are described below.

Chains of the proteins cited; added tags and fusions are not shown.
UniProt Q9NS91: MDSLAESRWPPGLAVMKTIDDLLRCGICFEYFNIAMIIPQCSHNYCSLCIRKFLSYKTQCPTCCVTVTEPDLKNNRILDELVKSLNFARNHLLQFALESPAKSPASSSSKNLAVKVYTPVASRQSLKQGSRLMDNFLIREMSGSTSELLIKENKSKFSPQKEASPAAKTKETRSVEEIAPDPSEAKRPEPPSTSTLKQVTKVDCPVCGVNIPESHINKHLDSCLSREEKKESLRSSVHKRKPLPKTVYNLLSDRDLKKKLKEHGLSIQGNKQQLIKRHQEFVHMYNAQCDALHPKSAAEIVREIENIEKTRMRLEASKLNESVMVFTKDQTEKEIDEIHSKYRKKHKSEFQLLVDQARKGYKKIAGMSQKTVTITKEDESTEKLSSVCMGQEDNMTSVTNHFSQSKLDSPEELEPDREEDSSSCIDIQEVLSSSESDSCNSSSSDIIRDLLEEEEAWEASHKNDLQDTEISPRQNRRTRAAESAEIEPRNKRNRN
UniProt Q92878: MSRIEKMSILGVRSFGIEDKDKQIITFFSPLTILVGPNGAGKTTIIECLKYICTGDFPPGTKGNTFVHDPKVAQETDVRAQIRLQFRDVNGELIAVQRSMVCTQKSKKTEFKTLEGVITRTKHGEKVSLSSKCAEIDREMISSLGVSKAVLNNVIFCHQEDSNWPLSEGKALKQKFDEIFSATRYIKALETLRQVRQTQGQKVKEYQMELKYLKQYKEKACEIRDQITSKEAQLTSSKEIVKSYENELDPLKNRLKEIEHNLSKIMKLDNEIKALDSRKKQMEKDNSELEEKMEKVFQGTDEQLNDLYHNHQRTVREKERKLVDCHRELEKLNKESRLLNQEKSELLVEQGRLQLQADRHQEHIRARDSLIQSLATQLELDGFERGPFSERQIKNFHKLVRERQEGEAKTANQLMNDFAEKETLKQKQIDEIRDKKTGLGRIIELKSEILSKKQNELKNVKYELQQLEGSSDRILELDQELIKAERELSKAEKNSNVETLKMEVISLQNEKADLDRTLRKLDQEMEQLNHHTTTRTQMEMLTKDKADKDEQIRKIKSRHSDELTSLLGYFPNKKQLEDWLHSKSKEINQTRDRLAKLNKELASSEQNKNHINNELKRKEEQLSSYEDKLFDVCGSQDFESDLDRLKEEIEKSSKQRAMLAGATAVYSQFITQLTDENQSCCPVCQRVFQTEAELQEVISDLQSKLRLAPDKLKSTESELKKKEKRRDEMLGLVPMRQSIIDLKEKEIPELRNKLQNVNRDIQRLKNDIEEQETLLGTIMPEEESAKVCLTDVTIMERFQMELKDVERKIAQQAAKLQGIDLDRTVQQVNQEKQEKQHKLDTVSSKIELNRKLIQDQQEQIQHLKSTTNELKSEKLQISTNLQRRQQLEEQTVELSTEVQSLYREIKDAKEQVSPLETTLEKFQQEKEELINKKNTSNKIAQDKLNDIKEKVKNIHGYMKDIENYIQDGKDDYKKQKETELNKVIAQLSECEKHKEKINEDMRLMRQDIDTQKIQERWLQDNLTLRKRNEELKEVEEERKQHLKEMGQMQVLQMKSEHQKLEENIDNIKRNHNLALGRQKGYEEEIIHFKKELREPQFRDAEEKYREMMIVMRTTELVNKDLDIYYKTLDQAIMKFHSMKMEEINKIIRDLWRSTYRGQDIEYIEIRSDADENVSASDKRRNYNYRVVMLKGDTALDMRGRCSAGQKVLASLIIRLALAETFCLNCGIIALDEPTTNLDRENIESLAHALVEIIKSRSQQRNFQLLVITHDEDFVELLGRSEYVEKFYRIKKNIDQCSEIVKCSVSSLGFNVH
UniProt O60934: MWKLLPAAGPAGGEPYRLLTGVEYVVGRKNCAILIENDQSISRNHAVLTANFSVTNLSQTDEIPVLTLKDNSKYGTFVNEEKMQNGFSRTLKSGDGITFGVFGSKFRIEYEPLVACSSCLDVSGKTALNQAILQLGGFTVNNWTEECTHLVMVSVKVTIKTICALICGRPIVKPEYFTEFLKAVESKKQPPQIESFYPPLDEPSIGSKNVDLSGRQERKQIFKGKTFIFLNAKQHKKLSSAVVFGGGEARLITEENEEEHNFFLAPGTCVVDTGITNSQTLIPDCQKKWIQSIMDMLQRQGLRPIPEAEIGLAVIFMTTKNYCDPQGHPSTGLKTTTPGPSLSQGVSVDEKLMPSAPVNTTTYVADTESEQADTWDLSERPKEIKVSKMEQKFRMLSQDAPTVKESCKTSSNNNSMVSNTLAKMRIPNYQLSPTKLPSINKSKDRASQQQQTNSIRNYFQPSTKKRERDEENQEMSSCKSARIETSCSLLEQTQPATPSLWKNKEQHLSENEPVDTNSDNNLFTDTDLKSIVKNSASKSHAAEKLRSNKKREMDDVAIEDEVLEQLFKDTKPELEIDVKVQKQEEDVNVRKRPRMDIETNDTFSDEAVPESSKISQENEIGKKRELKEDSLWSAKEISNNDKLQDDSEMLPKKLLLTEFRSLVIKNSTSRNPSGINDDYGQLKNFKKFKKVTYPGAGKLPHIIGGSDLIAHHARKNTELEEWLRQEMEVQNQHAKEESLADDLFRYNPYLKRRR

Results are given in words; binding and its absence hold for the method and conditions named. In cells and extracts the contact can be indirect. Some entries that bind do so weakly or less than the wild type.

The test has as its target E3 ubiquitin-protein ligase Rad18 (human (endogenous in 143B)) (UniProt Q9NS91). The experiment in a line: co-IP; lysates of 143B and 143B-Res cells, immunoprecipitated with Rad18 antibody, western blot; also 143B cells with 0 or 5 μM doxorubicin (6 h); wash 50 mM Tris-HCl pH 7.4, 150 mM NaCl, 0.5% NP-40. On the technique in general: In western blotting, separated proteins are transferred to a membrane and probed.

In the case of RAD50 (from UniProt Q92878 1-1312), the binding entry is given as “binds”. For NBS1 (from UniProt O60934 1-754), the binding result is “binds”.
